Paper PMC6910826

Biological target: T1, Zasp52 PDZ domain (Drosophila melanogaster) (UniProt A1ZA47)
T1 sequence: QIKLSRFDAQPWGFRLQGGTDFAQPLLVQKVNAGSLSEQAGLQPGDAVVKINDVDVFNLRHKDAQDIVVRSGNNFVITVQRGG
Assay: two-hybrid; Matchmaker Y2HGold yeast, double transformants; serial dilutions grown on -Ade/-His/-Leu/-Trp plates; done at least three times

binding	Substance
no binding	Zasp66-PH (Drosophila melanogaster)
no binding	Zasp67-PD (Drosophila melanogaster)
no binding	Zasp66-PK (Drosophila melanogaster)

Results are given in words; binding and its absence hold for the method and conditions named.
